Assay results: article doi:10.1101/2020.11.16.385906
Like-named read-outs stand apart in the source and are kept apart here. These are yes or no findings as the source states them, for the method shown. Binding calls can cover weak binding; strength is not graded here.

Amino acid sequences for entries named in this document (tags omitted). A change or cut given only in a name is not applied to a line headed by its entry.
UniProt Q9BL47: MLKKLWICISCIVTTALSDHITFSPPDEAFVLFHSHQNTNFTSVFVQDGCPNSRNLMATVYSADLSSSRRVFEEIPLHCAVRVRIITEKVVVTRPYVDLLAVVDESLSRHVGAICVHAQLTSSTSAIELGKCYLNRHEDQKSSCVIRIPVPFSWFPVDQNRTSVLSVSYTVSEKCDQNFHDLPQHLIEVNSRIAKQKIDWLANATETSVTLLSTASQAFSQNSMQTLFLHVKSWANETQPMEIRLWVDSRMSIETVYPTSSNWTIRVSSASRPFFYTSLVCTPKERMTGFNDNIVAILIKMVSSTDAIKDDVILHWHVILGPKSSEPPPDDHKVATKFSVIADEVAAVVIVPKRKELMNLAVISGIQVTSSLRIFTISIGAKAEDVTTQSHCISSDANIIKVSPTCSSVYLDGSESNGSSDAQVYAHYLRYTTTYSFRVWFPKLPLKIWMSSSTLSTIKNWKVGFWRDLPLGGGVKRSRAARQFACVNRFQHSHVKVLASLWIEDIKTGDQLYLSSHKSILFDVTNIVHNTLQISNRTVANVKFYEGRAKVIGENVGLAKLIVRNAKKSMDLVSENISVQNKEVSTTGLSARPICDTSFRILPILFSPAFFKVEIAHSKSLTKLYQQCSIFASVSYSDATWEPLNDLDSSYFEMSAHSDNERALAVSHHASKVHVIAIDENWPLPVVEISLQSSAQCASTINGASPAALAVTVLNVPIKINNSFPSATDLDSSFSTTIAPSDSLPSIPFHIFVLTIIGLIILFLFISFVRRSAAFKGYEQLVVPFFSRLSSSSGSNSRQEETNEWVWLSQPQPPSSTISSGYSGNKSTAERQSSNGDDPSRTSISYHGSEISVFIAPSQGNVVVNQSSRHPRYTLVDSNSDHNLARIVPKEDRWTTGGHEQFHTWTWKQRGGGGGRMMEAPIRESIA

Key:
[1] = target: C-terminus of C. elegans TMEM-132 (yeast two-hybrid bait) (C. elegans) (UniProt Q9BL47); experiment: two-hybrid
[2] = target: C-terminus of C. elegans TMEM-132 (yeast two-hybrid bait) (C. elegans) (UniProt Q9BL47); experiment: two-hybrid; remark: listed apart in the source

Molecule: GEX-3 C-terminal 60 a.a. fragment (yeast two-hybrid) (from UniProt P55163) (domain or fragment)
- binding [1]: binds

Molecule: GEX-3 C-terminal 600 a.a. fragment (yeast two-hybrid) (from UniProt P55163) (domain or fragment)
- binding [1]: binds

B1: GEX-3 full length (yeast two-hybrid) (protein, UniProt P55163 1-1141)
chain: MAYKDARQVKIAEKLVILNDRAAGMMTRIYNIKKSSGDSKVKPQFLSDKKMEGAIKHIVRKFPVVDCRSNSSTFEYVQEKSTEITKSLSLYYYTFADILDLKDHIMQVLTTMESCQCQLDVTLNYDLTTSYLNLVVHLVTMMILLSRIEDRKAVLGLFNAAYDLQHGQSEASFPRLGQMILDYENPLKKLHEDLGPLNRLIYSALSSVTHTYQRRNKTADSWRTSNVFSLTAAPAQILYAAQTETIACEYLSLDVIDRWIVFCGTVCHSTLLNDDNIRHMWQLALQMNLCLRVFRDETFIVHQEIQAFLESSKEKSKRLQDVKDAFNHASVTAVAVHADRRRFLRSSLRELSLLLRDQPGLLGPKILYVWMALGAGRDEVIWLLRHQVEVPAISKKGSRMVEELVDRQLPELLFYMLELRDLVTKYYAVIQRYYLQYVSSYDSIVVSEEINQANGLTQEEAVLLTDFANEIGNINSDTDLRALRLDWFRFQAWTSAARSHFQLSRHKKLAIYMNTSVFHLKMIDLQDEMLRETSDLSLYCFYPKLAEKHWLNCLQLPAQARYVLSFARLAAHFTSALHDMCPEEKAFITEKALAQCNSVIEETCKQLSYILEKVAEHEFGLAYQMTPSAVAVRVVAQVVQQKGSGKAAAAAAAAARDYFIAGEESYRVDRQALTMPDKLQTTLLEISAALGAHRQIYVADHTFAPRTYLAQSLETKFVELLHGMFWEGQPHASNPKRPSEMLLALQAYMTVLQNLDTAISVDISNTMQTTLLQQTQLVDSKNKDTIAALYTKWYLEVLLRRASSGHMVWSEHLRTMLSSGQEQLSFMPDHYSDPQELRALVQIIGPYGVKLMTERLIWHVASQIMEMSKIVATYKDALQIARSNFDNAEKMKDVLNLLSVEPKDKKTPNATCAADAILQRTIIIGQICLFRDALHDALRHIVESKLPFLQASFDMLYHNLDDVDKVKIGEMSAAMGVTGPVDMSLVNAVRAQNPNIHPQEHYVNSCLLMVAVAICIPRIGMSDLSSYKPSIQASLNNSHCVPMAINTIGSALFHLHEQNDIQSRMKEFLALASSGILRTIHERDNSRQISDDVLRSHTTLYIILEQMVRKNRWLSMDVLETCFPYNLVRTAYQQCYEADAQ
- binding [2]: binds
